The record followed here is patent publication US20250041624A1, “METHOD FOR ENHANCING ACTIVITY OF PHOTOSENSITIZER BY MAGNETIC FIELD” (PEKING UNIVERSITY, priority 2021, published 2025).

This data set is described as follows: Reaction rate of KI with 1O2 (I3− absorbance at 350 nm) under light and magnetic field. In kind it is physicochemical. The note with it: RB; MF increasing from 135 mT to 850 mT. The method, then: (1) The photosensitizers Rose Bengal (RB) and potassium iodide KI are dissolved in water, with the concentrations of photosensitizer and KI is 10 μmol/L and 10 mmol/L, respectively in the resulting solution. […] The above UV-vis absorption spectra tests are performed in the strength range of the magnetic field from 0 to 850 mT respectively.
(2) The photosensitizer chlorin e6 (Ce6, Chlorin e6) and potassium iodide KI are dissolved in water, with the concentrations of the photosensitizer and KI of 10 μmol/L and 10 mmol/L in the resulting solutions. In a magnetic field with certain strength, the solutions are exposed to a 635 nm LED lamp (light emitting diode) at a power of 5 mW·cm^−2, and tested for absorption spectra every 15 seconds over 5 min, and the absorbance at 350 nm is recorded to obtain absorbance versus time curves. The above UV-vis absorption spectra are obtained at a magnetic field strength range from 0 to 850 mT, respectively. […]
Under irradiation conditions, photosensitizer is excited to produce singlet oxygen ^1O2, and KI reacts with ^1O2 to give I2 and target detector, iodine triion I3^−, characterized by absorption bands centered at 300 and 350 nm in UV-vis absorption spectrum. The reaction rate is R, which is proportional to the slope of absorbance-time curve of iodine triion I3^− at 350 nm. […]

Each structure is given as a SMILES string.

Turning to `O=C1OC2(c3cc(I)c(O)c(I)c3Oc3c2cc(I)c(O)c3I)c2c(Cl)c(Cl)c(Cl)c(Cl)c21` [RB, Rose Bengal], the “trend of mfeR” value was “rapidly decreases”.
